The target of the assay is hypothetical protein CV_2116 from Chromobacterium violaceum (Chromobacterium violaceum) (UniProt Q7NW74). Description: NMR 15N T1/T2 relaxation (rotational correlation time); 1D 15N-edited T1 and T2 experiments of the NC sample, 600 MHz, 298 K; tau-c 6.2 ± 0.5 ns compared with a curve of molecular weight versus tau-c of known monomeric proteins; NMR buffer 10 mM Tris pH 7.0, 300 mM NaCl, 10 mM DTT; both purified.

These are yes or no findings as the source states them, for the method shown.

B1: hypothetical protein CV_2116 from Chromobacterium violaceum (protein, UniProt Q7NW74 1-82)
chain: MNVAHYRGYEIEPGHQYRDDIRKYVPYALIRKVGVPDRTPIPATYPEFYDLEADAERVSIACAKIIIDSHLDRHDQGLADLG
On to B1, for which the binding entry is on record as “no binding”.

The values above are taken from PMC3397530.
